Data taken from patent US12582619B2 (priority 2020, dated 2026).
Structures were worked out from names or drawings and are uncertain.

Chains of the proteins cited; added tags and fusions are not shown.
UniProt Q99720, whole entry: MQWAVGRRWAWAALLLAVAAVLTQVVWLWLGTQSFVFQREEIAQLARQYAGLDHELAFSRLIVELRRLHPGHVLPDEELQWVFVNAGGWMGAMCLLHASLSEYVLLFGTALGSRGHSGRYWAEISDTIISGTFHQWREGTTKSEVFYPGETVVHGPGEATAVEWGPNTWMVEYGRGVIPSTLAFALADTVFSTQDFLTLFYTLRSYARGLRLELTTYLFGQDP

Molecular target: Sigma1 (Homo sapiens, UniProt Q99720)
Test: Sigma1 binding, Ki
Settings: read-out: Sigma1, Ki

In the case of COc1cc(NC(=N)NCCC(C)(C)Oc2ccc(C(F)(F)F)cc2)ncc1C#N, the Ki is reported as 14 nM.
